Where a name gives a salt, the structure may show the parent alone. Some of the results follow. Single values of this set are uncertain.

The text below walks through data of the supplement of paper PMC9744312.

The test system of the experiment is Peyronie's disease tunica albuginea primary fibroblasts. Nature of the experiment: inhibition of TGF-beta1-induced alpha-SMA expression (myofibroblast transformation), relative to TGF-beta1-only and untreated controls; higher = stronger inhibition of myofibroblast transformation. The conditions noted are these: 10 µM; TGF-beta1 10 ng/mL; 72 h.
For `CC(C)Oc1ccc(-c2nc(-c3cccc4c3CC[C@@H]4NCCO)no2)cc1C#N` [Ozanimod (RPC1063)], the “inhibition of TGF-beta1-induced alpha-SMA expression” value (“inhibition” below) was determined as 38.9%.

`CN1CCC(=C2c3ccccc3C=Cc3ccccc32)CC1` [Cyproheptadine hydrochloride]: the “inhibition” value stood at 87.9%. In the case of `CN1CCC(=C2c3ccccc3C=Cc3ccccc32)CC1` [Cyproheptadine HCl], the “inhibition” value turned out to be 32.4%.

`CO[C@H]1/C=C/O[C@@]2(C)Oc3c(C)c(O)c4c(O)c(c(/C=N/N5CCN(C6CCCC6)CC5)c(O)c4c3C2=O)NC(=O)/C(C)=C\C=C\[C@H](C)[C@H](O)[C@@H](C)[C@@H](O)[C@@H](C)[C@H](OC(C)=O)[C@@H]1C` [Rifapentine]: the “inhibition” value was -5.79%.

Consider `N=C(N)NC(=N)NCCc1ccccc1` [Phenformin HCl], for which the “inhibition” value amounted to 17.5%. For the molecule `NCCc1c[nH]cn1` [Histamine], the “inhibition” value was determined as 2.07%.

`NCCc1c[nH]cn1` [Histamine Phosphate]: the “inhibition” value was determined as 8.5%. On to `NCCc1c[nH]cn1` [Histamine 2HCl], for which the “inhibition” value was 9.1%.

In the case of `OC(Cn1cncn1)(Cn1cncn1)c1ccc(F)cc1F` [Fluconazole], the “inhibition” value was -3.18%. With `C[C@@H](NCCCc1cccc(C(F)(F)F)c1)c1cccc2ccccc12` [Cinacalcet HCl] the figure was 25.9%; with `CC(=O)Nc1cccc(-n2c(=O)n(C3CC3)c(=O)c3c(Nc4ccc(I)cc4F)n(C)c(=O)c(C)c32)c1`, -138%. With `N=C1CCCN1Cc1[nH]c(=O)[nH]c(=O)c1Cl` [Tipiracil hydrochloride] the figure was 7.79%; with `Nc1[nH]cnc2ncnc1-2` [Adenine sulfate], 9.16%; with `Nc1[nH]cnc2ncnc1-2` [Adenine HCl], 80.5%.

Turning to `C[C@@H](O)[C@H]1C(=O)N2C(C(=O)O)=C([C@H]3CCCO3)S[C@H]12` [Faropenem Sodium], the “inhibition” value worked out at 30.3%.

Turning to `OCCN1CCN(CC/C=C2/c3ccccc3Sc3ccc(C(F)(F)F)cc32)CC1` [Flupenthixol dihydrochloride], the “inhibition” value worked out at 74.7%.

With `Cc1cn[nH]c1` [Fomepizole], the “inhibition” value stood at 32.4%. The figure for `Cc1ccc(C(=O)c2ccc(CC(=O)O)n2C)cc1` [Tolmetin] is 76.9%; for `Cc1ccc(C(=O)c2ccc(CC(=O)O)n2C)cc1` [Tolmetin Sodium] it is 48.6%. Turning to `FC(F)(F)C(Cl)Br` (stereo unspecified) [Halothane], the “inhibition” value was found to be 28.2%. With `O=C(O)CCCCCCCC(=O)O` [Azelaic acid] the figure was -27.3%. With `CC(=O)OCC(=O)[C@@]1(O)CC[C@H]2[C@@H]3CCC4=CC(=O)CC[C@]4(C)[C@@]3(F)[C@@H](O)C[C@@]21C` [Fludrocortisone acetate] the figure was 54.7%. The figure for `NS(=O)(=O)c1cc(C2(O)NC(=O)c3ccccc32)ccc1Cl` (stereo unspecified) [Chlorthalidone] is 19.4%; for `CC(=O)OCC(=O)[C@@]1(O)CC[C@H]2[C@@H]3CCC4=CC(=O)CC[C@]4(C)[C@H]3[C@@H](O)C[C@@]21C` [Hydrocortisone acetate] it is 48.2%. Regarding `CC(C)c1c(C(=O)Nc2ccccc2)c(-c2ccccc2)c(-c2ccc(F)cc2)n1CC[C@@H](O)C[C@@H](O)CC(=O)O` [Atorvastatin Calcium], the “inhibition” value is more than 100%.

Turning to `Cc1ncc(C[n+]2csc(CCO)c2C)c(N)n1` [Thiamine HCl (Vitamin B1)], the “inhibition” value is -5.49%. `CCN[C@H]1CN(CCCOC)S(=O)(=O)c2sc(S(N)(=O)=O)cc21` [Brinzolamide]: the “inhibition” value stood at 9.15%. With `CC(=O)Oc1ccccc1C(=O)Nc1ncc([N+](=O)[O-])s1` [Nitazoxanide] the figure was more than 100%. With `CCCCOCCOCCOCc1cc2c(cc1CCC)OCO2` [Piperonyl butoxide] the figure was 31.1%; with `CCN(CC)CCOC(=O)C1(C2CCCCC2)CCCCC1` [Dicyclomine HCl], 7.53%. In the case of `CCCCC(O)c1ccccc1` (stereo unspecified) [Fenipentol], the “inhibition” value was found to be 17.6%.

Consider `Nc1c(CC(=O)O)cccc1C(=O)c1ccccc1` [Amfenac Sodium Monohydrate], for which the “inhibition” value is 30.2%. With `O=C1c2c(O)cccc2Cc2cccc(O)c21` [Dithranol] the figure was 21.7%. With `Cc1nnc(C(=O)NC(C)(C)c2nc(C(=O)NCc3ccc(F)cc3)c(O)c(=O)n2C)o1` [Raltegravir (MK-0518)] the figure was 29.3%.

As for `Cc1nnc(C(=O)NC(C)(C)c2nc(C(=O)NCc3ccc(F)cc3)c(O)c(=O)n2C)o1` [Raltegravir potassium], the “inhibition” value was -9.29%.

In the case of `O=C(NC[C@H]1CN(c2ccc(N3CCOCC3=O)cc2)C(=O)O1)c1ccc(Cl)s1` [Rivaroxaban], the “inhibition” value stood at 7.73%. The figure for `C[C@@H]1C[C@H]2[C@@H]3C[C@H](F)C4=CC(=O)C=C[C@]4(C)[C@@]3(F)[C@@H](O)C[C@]2(C)[C@@]1(O)C(=O)CO` [Flumethasone] is 50.9%; for `O=C(O)c1cn(-c2ccc(F)cc2)c2cc(N3CCNCC3)c(F)cc2c1=O` [Sarafloxacin HCl] it is 2.55%; for `N[C@@H](CCC(=O)O)C(=O)[O-].[Na+]` [L-Glutamic acid monosodium salt] it is 10.1%. As for `C[N+]1(C)CCC(OC(=O)C(O)(c2ccccc2)C2CCCC2)C1` (stereo unspecified) [Glycopyrrolate], the “inhibition” value amounted to 14.5%.

Consider `Clc1ccc(CCC(Cn2ccnc2)Sc2c(Cl)cccc2Cl)cc1` (stereo unspecified) [Butoconazole], for which the “inhibition” value is -5.84%. Consider `Clc1ccc(CCC(Cn2ccnc2)Sc2c(Cl)cccc2Cl)cc1` (stereo unspecified) [Butoconazole nitrate], for which the “inhibition” value was 5.26%. For `N#Cc1ccc(C(c2ccc(C#N)cc2)n2cncn2)cc1` [Letrozole], the “inhibition” value worked out at 8.71%.

With `NCc1ccccc1CC(=O)N[C@@H]1C(=O)N2C(C(=O)O)=C(CSc3nnnn3CC(=O)O)CS[C@H]12` [Ceforanide], the “inhibition” value is 33.5%. The figure for `N=C(NCCCCCCNC(=N)NC(=N)Nc1ccc(Cl)cc1)NC(=N)Nc1ccc(Cl)cc1` [Chlorhexidine] is more than 100%; for `COc1c2occc2cc2ccc(=O)oc12` [Methoxsalen] it is 12.7%; for `CN1CCN(C2=Nc3ccccc3Oc3ccc(Cl)cc32)CC1` [Loxapine Succinate] it is -8.62%.

As to `CCOC(=O)[C@@H](N)Cc1ccc(-c2cc(O[C@H](c3ccc(Cl)cc3-n3ccc(C)n3)C(F)(F)F)nc(N)n2)cc1` [Telotristat Etiprate (LX 1606 Hippurate)], the “inhibition” value turned out to be 10%. With `C1CNCCN1` [Piperazine], the “inhibition” value came out at 6.1%. The figure for `Nc1cc(C(Cl)=C(Cl)Cl)c(S(N)(=O)=O)cc1S(N)(=O)=O` [Clorsulon] is -1.64%; for `CC[C@H](C)C(=O)O[C@H]1CCC=C2C=C[C@H](C)[C@H](CC[C@@H]3C[C@@H](O)CC(=O)O3)[C@H]21` [Mevastatin] it is more than 100%.
